In US20130090249A1:
Results are given in words; binding and its absence hold for the method and conditions named. For part of these data: Binding seen in cells or lysates may run through a third protein. Some binding calls cover weakened binding; strength is not graded here. Blank lines part the entries; values can stand above or below the substance they belong to.

Chains of the proteins cited; added tags and fusions are not shown. Lines headed by an entry give the natural chain unless they say otherwise; changes in a name come on top. A line that says so, or that is headed by a name, gives the form on record, which may keep a tag or linker.
UniProt Q7L985: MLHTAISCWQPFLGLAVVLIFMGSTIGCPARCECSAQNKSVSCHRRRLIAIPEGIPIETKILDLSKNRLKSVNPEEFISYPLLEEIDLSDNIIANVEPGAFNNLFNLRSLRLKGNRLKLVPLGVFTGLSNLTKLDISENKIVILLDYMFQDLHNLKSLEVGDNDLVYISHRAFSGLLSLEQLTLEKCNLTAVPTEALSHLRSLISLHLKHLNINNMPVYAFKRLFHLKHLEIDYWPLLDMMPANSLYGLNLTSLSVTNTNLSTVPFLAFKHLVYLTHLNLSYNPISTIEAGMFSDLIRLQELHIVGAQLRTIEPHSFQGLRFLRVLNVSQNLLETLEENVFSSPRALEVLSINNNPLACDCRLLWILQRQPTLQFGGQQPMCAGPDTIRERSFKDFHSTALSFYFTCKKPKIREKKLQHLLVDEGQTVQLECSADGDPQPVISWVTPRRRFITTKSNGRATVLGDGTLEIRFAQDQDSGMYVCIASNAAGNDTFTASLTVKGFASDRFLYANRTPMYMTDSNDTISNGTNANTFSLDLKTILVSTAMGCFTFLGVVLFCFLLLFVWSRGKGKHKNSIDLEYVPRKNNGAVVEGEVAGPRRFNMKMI
Lingo-1 of rat cortical neurons (A0A8I5ZPI2, form named): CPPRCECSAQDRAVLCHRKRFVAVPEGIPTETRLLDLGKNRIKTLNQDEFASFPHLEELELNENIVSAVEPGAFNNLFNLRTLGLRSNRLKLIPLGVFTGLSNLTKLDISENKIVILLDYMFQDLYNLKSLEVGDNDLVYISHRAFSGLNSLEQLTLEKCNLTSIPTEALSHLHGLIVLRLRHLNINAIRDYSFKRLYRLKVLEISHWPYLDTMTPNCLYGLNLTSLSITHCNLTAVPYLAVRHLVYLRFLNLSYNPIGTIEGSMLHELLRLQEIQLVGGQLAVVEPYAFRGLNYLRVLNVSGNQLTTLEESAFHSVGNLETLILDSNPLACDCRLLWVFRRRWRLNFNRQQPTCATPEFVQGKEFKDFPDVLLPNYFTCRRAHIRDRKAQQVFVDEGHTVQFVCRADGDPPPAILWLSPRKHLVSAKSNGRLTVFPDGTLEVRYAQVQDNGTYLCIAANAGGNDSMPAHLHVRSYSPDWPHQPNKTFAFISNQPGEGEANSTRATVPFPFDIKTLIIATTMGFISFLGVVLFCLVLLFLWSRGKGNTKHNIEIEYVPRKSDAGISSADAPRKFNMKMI
UniProt Q96FE5: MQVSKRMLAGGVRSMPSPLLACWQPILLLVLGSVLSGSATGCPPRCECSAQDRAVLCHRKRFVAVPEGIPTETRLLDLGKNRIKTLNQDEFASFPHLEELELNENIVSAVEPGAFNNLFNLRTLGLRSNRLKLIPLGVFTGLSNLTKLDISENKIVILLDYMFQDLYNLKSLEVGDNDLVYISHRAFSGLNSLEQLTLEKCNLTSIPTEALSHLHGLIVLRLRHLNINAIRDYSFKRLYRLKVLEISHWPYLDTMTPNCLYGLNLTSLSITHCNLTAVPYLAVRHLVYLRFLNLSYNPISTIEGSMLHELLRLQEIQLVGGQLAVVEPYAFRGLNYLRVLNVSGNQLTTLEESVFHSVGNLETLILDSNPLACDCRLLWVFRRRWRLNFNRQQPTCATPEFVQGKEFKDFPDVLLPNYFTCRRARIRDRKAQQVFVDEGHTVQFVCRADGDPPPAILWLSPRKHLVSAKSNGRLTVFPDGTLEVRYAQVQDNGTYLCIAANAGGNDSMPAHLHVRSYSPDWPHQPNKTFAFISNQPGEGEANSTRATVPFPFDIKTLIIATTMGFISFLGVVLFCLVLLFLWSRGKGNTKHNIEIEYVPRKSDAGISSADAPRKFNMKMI

Assays:
[1] = target: Lingo-1 of rat cortical neurons (rat); assay: DSP chemical bridging of live rat cortical neurons, anti-Lingo-1 Western blot
[2] = target: Lingo-2-YFP (human) (UniProt Q7L985); assay: BRET saturation in live HEK-293 cells, 96-well plates
[3] = target: Lingo-1-eYFP (human); assay: coimmunoprecipitation from cotransfected HEK-293 cells, anti-HA beads, anti-YFP Western blot

binding [1]: binds
Substance: Lingo-1 of rat cortical neurons (from UniProt A0A8I5ZPI2 36-614) (receptor)

binding [2]: binds
Substance: Lingo-2-RLuc (from UniProt Q7L985 28-606)

binding [3]: binds
Substance: Lingo-1-HA (from UniProt Q96FE5 42-620) (receptor)
